The text below walks through data of the supplement of paper PMC10849652.

Amino acid sequences for entries named in this document (tags omitted). A change or cut given only in a name is not applied to a line headed by its entry.
UniProt P35712: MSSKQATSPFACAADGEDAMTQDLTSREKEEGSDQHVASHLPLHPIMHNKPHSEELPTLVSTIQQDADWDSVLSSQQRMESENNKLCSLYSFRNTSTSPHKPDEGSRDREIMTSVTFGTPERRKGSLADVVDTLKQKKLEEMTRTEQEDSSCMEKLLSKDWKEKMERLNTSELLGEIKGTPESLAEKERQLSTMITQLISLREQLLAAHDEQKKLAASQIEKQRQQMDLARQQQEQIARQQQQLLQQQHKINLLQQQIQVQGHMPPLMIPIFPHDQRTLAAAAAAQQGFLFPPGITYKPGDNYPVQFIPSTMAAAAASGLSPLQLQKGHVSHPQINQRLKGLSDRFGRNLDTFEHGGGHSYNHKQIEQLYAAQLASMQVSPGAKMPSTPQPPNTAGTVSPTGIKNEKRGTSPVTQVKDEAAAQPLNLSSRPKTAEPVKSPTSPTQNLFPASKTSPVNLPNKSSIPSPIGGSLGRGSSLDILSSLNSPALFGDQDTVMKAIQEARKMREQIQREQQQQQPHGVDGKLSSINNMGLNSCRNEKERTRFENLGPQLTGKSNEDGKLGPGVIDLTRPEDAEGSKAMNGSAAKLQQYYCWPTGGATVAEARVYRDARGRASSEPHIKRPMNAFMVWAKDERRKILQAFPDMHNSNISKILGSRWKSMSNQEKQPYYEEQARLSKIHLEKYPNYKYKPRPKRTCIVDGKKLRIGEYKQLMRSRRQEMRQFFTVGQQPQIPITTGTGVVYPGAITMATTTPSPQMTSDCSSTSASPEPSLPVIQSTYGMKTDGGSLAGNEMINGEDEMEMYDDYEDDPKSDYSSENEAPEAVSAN
UniProt Q6GMV2: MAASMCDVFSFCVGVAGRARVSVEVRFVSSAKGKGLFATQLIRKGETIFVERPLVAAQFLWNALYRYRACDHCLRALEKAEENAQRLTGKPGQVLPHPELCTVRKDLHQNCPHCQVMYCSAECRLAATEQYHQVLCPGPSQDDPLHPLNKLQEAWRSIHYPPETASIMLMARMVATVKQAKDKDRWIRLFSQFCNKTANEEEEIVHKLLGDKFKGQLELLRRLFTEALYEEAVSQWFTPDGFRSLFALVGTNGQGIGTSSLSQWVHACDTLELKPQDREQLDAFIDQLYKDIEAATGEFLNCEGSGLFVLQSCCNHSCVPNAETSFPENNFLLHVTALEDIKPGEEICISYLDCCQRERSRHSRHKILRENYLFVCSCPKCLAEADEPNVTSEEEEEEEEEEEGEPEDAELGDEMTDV
UniProt P09661: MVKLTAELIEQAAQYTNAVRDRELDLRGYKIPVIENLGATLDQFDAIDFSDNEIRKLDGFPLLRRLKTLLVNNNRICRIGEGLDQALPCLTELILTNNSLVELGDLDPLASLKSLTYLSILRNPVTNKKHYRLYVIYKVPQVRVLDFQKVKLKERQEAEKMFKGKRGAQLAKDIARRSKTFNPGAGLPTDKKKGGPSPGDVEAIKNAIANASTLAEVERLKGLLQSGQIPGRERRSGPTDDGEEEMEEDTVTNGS
UniProt O14508, whole entry, looked up: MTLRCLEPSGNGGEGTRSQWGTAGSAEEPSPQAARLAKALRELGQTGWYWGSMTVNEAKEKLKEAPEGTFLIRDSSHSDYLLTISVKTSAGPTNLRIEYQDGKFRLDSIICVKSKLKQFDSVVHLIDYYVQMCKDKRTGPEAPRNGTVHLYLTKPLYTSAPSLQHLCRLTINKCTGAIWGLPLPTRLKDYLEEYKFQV
UniProt P62306, whole entry, looked up: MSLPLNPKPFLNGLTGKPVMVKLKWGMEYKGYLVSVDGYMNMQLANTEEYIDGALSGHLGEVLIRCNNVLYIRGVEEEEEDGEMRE
UniProt P08579, whole entry, looked up: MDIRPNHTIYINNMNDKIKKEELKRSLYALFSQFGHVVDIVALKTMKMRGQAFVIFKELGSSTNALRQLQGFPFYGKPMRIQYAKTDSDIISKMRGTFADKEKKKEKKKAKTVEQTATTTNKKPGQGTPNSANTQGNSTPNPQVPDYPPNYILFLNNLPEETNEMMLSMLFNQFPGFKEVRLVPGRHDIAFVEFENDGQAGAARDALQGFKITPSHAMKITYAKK
UniProt P55769: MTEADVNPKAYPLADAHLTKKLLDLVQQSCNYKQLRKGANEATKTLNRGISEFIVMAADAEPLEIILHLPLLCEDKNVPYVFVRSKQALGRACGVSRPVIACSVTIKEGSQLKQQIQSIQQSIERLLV
UniProt O75391: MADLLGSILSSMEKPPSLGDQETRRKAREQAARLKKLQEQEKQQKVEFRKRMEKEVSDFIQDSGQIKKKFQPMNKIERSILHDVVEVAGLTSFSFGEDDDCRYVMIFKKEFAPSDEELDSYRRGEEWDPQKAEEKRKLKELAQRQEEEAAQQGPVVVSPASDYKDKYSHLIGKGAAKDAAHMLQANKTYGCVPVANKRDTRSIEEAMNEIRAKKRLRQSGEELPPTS
UniProt Q9H7B4: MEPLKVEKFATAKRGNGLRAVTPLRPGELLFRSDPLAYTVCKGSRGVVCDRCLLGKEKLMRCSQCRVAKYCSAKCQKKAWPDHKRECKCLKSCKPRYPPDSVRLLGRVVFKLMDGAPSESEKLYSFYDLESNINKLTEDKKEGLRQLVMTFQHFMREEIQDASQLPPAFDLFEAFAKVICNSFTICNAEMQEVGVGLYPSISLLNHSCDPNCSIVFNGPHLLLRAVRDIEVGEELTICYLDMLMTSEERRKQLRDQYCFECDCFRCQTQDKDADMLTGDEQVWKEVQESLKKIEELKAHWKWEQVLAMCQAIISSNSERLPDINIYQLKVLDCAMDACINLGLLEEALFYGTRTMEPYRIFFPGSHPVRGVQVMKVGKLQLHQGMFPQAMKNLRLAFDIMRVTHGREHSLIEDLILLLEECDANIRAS
UniProt P53814: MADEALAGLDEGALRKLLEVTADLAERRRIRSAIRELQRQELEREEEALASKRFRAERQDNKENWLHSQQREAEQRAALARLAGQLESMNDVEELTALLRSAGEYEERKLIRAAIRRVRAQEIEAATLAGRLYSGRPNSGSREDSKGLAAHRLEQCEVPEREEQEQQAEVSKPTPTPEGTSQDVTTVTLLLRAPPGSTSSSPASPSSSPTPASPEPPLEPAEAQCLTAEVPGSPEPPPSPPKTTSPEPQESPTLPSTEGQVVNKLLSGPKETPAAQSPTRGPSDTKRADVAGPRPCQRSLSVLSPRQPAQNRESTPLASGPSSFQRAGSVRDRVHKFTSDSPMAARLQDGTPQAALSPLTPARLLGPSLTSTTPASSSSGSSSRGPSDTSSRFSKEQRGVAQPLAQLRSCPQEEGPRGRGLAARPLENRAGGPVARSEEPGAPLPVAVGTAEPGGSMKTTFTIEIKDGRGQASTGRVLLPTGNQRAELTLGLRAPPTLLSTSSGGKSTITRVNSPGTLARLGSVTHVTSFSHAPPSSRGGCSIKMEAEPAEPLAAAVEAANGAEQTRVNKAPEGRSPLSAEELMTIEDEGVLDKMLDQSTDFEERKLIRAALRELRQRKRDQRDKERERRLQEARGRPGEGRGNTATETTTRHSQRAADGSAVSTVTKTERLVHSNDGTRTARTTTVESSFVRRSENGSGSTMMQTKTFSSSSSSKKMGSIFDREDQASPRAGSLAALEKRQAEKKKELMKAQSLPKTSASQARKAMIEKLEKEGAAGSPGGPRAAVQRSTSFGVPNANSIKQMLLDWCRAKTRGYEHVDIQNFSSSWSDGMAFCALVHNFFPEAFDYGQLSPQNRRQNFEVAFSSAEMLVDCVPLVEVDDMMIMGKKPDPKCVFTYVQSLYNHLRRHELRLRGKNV
UniProt P04179: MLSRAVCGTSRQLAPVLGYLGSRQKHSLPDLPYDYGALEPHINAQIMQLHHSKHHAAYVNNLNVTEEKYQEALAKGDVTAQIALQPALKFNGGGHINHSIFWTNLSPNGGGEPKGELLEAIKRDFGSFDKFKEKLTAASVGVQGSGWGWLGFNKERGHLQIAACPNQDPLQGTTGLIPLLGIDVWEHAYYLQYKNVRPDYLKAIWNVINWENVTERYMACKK
UniProt Q9Y5W9: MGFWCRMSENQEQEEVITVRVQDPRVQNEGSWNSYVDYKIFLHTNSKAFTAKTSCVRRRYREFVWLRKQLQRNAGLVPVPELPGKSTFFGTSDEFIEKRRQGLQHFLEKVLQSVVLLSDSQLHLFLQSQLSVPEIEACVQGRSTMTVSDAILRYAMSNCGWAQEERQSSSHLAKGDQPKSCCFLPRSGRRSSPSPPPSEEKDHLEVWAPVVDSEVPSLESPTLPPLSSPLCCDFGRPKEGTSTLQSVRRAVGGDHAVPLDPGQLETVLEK
UniProt Q13596, whole entry, looked up: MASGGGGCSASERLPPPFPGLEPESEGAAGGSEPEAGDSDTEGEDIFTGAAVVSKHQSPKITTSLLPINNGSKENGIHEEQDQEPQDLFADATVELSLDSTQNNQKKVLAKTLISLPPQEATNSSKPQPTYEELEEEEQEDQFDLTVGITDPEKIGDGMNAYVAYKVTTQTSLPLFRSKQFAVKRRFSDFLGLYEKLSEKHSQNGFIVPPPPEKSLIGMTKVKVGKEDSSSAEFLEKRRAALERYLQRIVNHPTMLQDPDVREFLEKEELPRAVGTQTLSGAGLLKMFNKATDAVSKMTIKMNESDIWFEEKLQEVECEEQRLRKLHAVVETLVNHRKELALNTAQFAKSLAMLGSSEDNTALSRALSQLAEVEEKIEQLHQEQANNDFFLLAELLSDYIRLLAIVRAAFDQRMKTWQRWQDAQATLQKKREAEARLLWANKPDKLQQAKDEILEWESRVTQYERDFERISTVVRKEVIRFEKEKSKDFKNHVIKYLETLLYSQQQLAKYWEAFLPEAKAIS
UniProt P51532, whole entry, looked up: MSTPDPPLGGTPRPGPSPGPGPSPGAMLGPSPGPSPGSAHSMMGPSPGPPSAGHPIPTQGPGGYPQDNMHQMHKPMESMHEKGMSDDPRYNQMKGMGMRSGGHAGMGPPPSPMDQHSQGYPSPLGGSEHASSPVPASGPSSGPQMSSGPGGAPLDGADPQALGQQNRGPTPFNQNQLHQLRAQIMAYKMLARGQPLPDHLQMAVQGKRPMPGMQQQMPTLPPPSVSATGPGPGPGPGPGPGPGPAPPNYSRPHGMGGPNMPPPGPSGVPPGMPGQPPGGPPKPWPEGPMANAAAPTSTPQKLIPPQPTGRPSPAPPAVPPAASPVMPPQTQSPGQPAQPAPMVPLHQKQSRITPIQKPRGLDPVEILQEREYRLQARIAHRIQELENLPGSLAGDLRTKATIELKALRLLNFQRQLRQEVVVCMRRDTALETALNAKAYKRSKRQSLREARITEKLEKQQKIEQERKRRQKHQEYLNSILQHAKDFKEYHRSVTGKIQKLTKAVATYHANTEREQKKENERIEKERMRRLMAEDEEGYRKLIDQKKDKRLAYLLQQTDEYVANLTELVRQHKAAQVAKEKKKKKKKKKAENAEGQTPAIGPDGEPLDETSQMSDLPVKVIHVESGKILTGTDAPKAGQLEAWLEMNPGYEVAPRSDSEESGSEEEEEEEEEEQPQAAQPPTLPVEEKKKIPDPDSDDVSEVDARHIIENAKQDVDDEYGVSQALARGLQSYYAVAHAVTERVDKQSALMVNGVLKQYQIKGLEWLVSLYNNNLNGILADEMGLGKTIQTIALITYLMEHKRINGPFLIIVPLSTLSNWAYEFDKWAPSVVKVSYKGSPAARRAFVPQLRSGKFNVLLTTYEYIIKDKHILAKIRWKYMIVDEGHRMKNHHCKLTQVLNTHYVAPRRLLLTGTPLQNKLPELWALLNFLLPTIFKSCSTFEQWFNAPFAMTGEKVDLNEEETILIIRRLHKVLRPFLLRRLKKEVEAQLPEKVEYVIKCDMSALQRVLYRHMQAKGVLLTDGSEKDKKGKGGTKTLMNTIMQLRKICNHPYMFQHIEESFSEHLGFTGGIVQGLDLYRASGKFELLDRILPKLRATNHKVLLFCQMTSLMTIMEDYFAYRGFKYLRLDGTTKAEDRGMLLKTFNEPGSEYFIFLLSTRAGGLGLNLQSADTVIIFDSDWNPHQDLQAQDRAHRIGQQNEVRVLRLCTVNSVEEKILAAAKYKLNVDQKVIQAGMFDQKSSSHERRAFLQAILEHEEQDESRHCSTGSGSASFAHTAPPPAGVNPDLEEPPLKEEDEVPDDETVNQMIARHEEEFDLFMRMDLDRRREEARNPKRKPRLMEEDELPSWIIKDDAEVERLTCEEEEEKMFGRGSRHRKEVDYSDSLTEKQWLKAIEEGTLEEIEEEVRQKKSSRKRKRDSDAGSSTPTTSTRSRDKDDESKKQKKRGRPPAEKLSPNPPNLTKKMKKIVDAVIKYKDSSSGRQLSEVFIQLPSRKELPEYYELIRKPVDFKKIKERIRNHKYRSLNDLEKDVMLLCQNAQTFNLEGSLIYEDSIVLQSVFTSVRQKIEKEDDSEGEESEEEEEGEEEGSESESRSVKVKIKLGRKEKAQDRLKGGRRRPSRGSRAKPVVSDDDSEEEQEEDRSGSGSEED

Some of the results follow.

Compound in the assay: O=C1NC(=O)C(c2cnc3ccccn23)=C1c1cn2c3c(cc(F)cc13)CN(C(=O)N1CCCCC1)CC2
In words: log2 fold change, soluble protein after heating vs DMSO (PISA); higher = thermal stabilisation; K562 lysate, 10 uM; active = over 0.2 and 3.5 SD of the protein, either way, in both replicates (recomputed). In short, it runs like this: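 A 30 min treatment with 10 μM compound was applied to crude K562 extract at 1 mg/mL protein in PBS pH 7.4 with 1 mM MgCl2. Heating for 3 min spanned 48°C-58°C, after which aliquots were pooled, adjusted to 0.5% NP-40 at 4°C and spun at 21,000xg for 90 min. TMTpro 16plex LC-MS/MS of the supernatant, with channel sums equalised, gave values recorded as log-two fold change in thermal stability against solvent controls, from duplicates.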
Take SOX6 (UniProt P35712): the log2 fold change is inactive: -0.016. As for SMCR8 (UniProt Q8TEV9), the figure is inactive: 0.012; as for SMYD5 (UniProt Q6GMV2), inactive: 0.017; as for SNRPA1 (UniProt P09661), inactive: 0.026. Then SMU1 (UniProt Q2TAY7), with inactive: -0.012; and SOCS2 (UniProt O14508), with inactive: -0.006; and SMARCA5 (UniProt O60264), with inactive: -0.021. As for SNRPF (UniProt P62306), the figure is inactive: -0.01. SNRPB2 (UniProt P08579): the log2 fold change is inactive: -0.019. As for SNU13 (UniProt P55769), the figure is inactive: 0.001. As to SNRPN isoform 2 (UniProt P63162), the log2 fold change is inactive: -0.008. Then SPAG7 (UniProt O75391), with inactive: -0.001. For SNAP29 (UniProt O95721), the log2 fold change is inactive: -0.046. As for SMYD3 (UniProt Q9H7B4), the figure is inactive: -0.003; as for SNRNP40 (UniProt Q96DI7), inactive: 0.022. Then SMTN isoform 6 (UniProt P53814), with inactive: -0.034; and SMC1B isoform 3 (UniProt Q8NDV3), with inactive: 0.026; and SOD2 (UniProt P04179), with inactive: 0.046. As for SNRK (UniProt Q9NRH2), the figure is inactive: -0.082; as for SNX11 (UniProt Q9Y5W9), inactive: 0.018. In the case of SOGA1 isoform 2 (UniProt O94964), the log2 fold change is inactive: -0.025.

Consider SNX1 (UniProt Q13596), for which the log2 fold change is inactive: -0.018. Then SMARCA4 (UniProt P51532), with inactive: -0.028.
